Here are results for 1 substance from publication PMC3477312, “Characterization of Vibrio cholerae Hfq Provides Novel Insights into the Role of the Hfq C-Terminal Region” (Journal of Molecular Biology, 2012).

Chains of the proteins cited; added tags and fusions are not shown.
UniProt Q9KV11: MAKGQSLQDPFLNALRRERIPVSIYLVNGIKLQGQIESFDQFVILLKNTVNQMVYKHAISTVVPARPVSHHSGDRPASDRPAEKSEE

These are yes or no findings as the source states them, for the method shown.

In the experiment the target is Vibrio cholerae Hfq (Vibrio cholerae) (UniProt Q9KV11). The experiment is described as follows: condition: only heated at 95 °C for 60 s in the presence of 1% SDS; SDS-PAGE stability assay; 1 ug protein in loading buffer with 1% SDS heated at 95 °C for 0 to 300 s, 10% SDS-PAGE, hexamer and monomer bands quantified; hexamer to monomers; both purified.

As for “Vibrio cholerae Hfq (from UniProt Q9KV11 1-87)”, the binding entry is recorded as “no binding”.
